# According to article PMC3531425, “Low Resolution Solution Structure of HAMLET and the Importance of Its Alpha-Domains in Tumoricidal Activity” (PLoS ONE, 2012):
# Results are given in words; binding and its absence hold for the method and conditions named.
# B1: HAMLET (Human Alpha-lactalbumin Made LEthal to Tumor cells), P00709 20-142 (protein)
# chain: KQFTKCELSQLLKDIDGYGGIALPELICTMFHTSGYDTQAIVENNESTEYGLFQISNKLWCKSSQVPQSRNICDISCDKFLDDDITDDIMCAKKILDIKGIDYWLAHKALCTEKLEQWLCEKL
# Target: T1, HAMLET (Human Alpha-lactalbumin Made LEthal to Tumor cells) (human), P00709
# T1 chain: B1 chain
# Assay: SAXS; HAMLET at 2.5 and 6.5 mg/ml in phosphate-buffered saline, 15 °C; molecular mass from forward scattering compared with a BSA reference solution; both purified
# Details: remark: other sources report otherwise
binder,measurement,value
B1,binding,no binding (tested: 2.5 and 6.5 mg/ml)
